Data from PubChem BioAssay AID540275 (National Center for Advancing Translational Sciences (NCATS), 2011).
About 620 (0.19%) of roughly 320,000 compounds were called active. This list was built around the results that the source calls inconclusive (neither active nor inactive); the mix of calls is not that of the screen. Rule as the data show it: active = activation above about 80%; inconclusive = between about 30% and that limit; inactive = weaker than that.
Also: 0% is about no effect.

By UniProt entry, the sequences of proteins in these tests, tags left out.
UniProt Q8NER1, whole entry, looked up: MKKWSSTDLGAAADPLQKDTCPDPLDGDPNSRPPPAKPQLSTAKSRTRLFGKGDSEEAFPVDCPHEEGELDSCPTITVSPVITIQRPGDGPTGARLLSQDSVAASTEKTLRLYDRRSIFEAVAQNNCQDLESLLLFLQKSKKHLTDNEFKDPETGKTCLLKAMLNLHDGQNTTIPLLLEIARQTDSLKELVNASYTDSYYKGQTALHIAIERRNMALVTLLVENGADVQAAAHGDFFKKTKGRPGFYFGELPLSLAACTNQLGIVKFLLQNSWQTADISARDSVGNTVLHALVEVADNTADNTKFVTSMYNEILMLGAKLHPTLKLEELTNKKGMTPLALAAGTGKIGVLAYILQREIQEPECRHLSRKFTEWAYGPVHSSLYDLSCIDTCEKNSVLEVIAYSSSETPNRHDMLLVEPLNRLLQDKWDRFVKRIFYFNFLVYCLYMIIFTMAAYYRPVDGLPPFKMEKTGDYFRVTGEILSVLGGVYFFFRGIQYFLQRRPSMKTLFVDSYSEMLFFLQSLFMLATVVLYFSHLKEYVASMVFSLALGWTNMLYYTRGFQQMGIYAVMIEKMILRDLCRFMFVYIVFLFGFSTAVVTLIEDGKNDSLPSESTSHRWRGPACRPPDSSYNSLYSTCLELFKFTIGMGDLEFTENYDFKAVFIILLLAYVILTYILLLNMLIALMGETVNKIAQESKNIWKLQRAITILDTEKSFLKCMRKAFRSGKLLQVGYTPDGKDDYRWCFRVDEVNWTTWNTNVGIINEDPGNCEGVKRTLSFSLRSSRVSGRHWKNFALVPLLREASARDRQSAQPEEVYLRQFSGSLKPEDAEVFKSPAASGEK

What follows are compounds tested against Transient receptor potential cation channel subfamily V member 1 (Homo sapiens) (UniProt Q8NER1) (assay: HTS Assay for Compounds that Act as Agonists of the Vanilloid Receptor 1). Settings: TRPV1-expressing cells, Fluo-8 calcium influx, agonist mode; at 8.33 µM, active compounds read high.
Outline: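 Cells expressing TRPV1 were dye-loaded with Fluo-8 and read kinetically: 10 s baseline, 3 min after compound (agonist portion), then 2 min after EC20 capsaicin (allosteric enhancer portion). Calcium-bound dye fluorescence at 480/520 nm.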
In the case of `C=CCn1c(=S)[nH]c2cc(C(=O)Nc3ccc(F)cc3)ccc2c1=O`, the activation was inconclusive: 68.3%.
With `CC(C)(C)c1ccc(NC(=O)COc2ccc(-n3ccnc3)cc2)cc1` the activation was inconclusive: 68.4%.
In the case of `CC(=O)c1ccc(-c2cccc(-c3nc4ccccn4c3NC3CCCCC3)c2)cc1`, the activation was inactive: 4.41%.
In the case of `Cn1c(SCC(=O)Nc2cccc(C(=O)O)c2)nnc1-c1cc2cc(Br)ccc2o1`, the activation was inactive: 4.54%.
`CCOc1cc(OCC)cc(C(=O)Nc2cccnc2)c1` was tested, and the activation was inconclusive: 37.9%.
With `CCOc1ccc(CCNC(=O)Nc2ccccc2)cc1OCC` the activation was active: 91.3%.
`O=C(Nc1ccc2c3c(cccc13)CC2)c1ccco1` was tested, and the activation was inconclusive: 63%.
`Cc1cc(C)n(-c2nc(SCCN(C)C)c3c4c(sc3n2)COC(C)(C)C4)n1` was tested, and the activation was inactive: -3.34%.
`CC(C)n1c(NCCc2ccccc2)nc2c1c(=O)n(C)c(=O)n2C` was tested, and the activation was inactive: 2.02%.
For `O=C(CN1C(=O)NC2(CCCC2)C1=O)Nc1ccc(Cl)c(C(F)(F)F)c1`, the activation was inconclusive: 37.2%.
With `Cc1ccc(C(=O)c2c[nH]c3c(F)cc(F)cc3c2=O)cc1` the activation was inactive: -2.54%.
With `CCc1ccc(C(=O)C(C)OC(=O)c2nc3nc(C)cc(C)n3n2)cc1` (stereo unspecified) the activation was inactive: -3.25%.
For `O=C1CCCCC1C(Nc1ccc(Cl)cc1)c1ccccc1` (stereo unspecified), the activation was inconclusive: 54.4%.
`COc1cccc(NC(=O)COC(=O)COc2cccc3c2OC(C)(C)C3)c1` was tested, and the activation was inconclusive: 33.2%.
For `Cc1ccc(C(=O)OCC(=O)N2CCC(c3ccccc3)=N2)c(C)c1`, the activation was inconclusive: 32.2%.
`CCOC(=O)c1[nH]c(C)c(C(=O)c2ccc(C)cc2)c1C` was tested, and the activation was active: 89.6%.
`COc1cccc(NC(=O)c2ccc3nsnc3c2)c1` was tested, and the activation was inconclusive: 37.6%.
With `CCOc1cc(CNCc2ccncc2)cc(Br)c1OCc1ccc(F)cc1` the activation was inconclusive: 77.1%.
`Cc1cc(C)c(C#N)c(N2CCN(c3ccccc3)CC2)n1` was tested, and the activation was inconclusive: 31.3%.
For `CCn1ccnc1CN(C)Cc1nc(Cc2cccc(C(F)(F)F)c2)no1`, the activation was inactive: 14.5%.
With `c1ccc(-c2c(-c3ccccc3)n(Cc3ccco3)c3ncnc(NCCCn4ccnc4)c23)cc1` the activation was inactive: 0.148%.
With `CC(C)c1ccc(NC2CCCN(C(=O)c3cscn3)C2)cc1` (stereo unspecified) the activation was inconclusive: 49%.
`Cc1ccc2cc3c(N)c(C(=O)N4CCOCC4)sc3nc2c1` was tested, and the activation was inconclusive: 34.1%.
`S=C1NC[C@H](CC2CCCCC2)N1CCCCC1CCCCC1` was tested, and the activation was inconclusive: 30.1%.
`O/N=C/c1ccn(-c2ccc(Br)cc2)c1` was tested, and the activation was inconclusive: 55%.
With `FC(F)Oc1ccc(NC(=S)NCc2ccccc2)cc1Cl` the activation was inconclusive: 35.1%.
For `N/C(=N\OC(=O)c1ccc2ccccc2c1)c1cccc([N+](=O)[O-])c1`, the activation was inconclusive: 40.6%.
`CC(C)c1nc2ccc(NC(=O)C34CC5CC(CC(C5)C3)C4)cc2[nH]1` was tested, and the activation was inconclusive: 32.5%.
In the case of `CC(C)OCCCNC(=O)c1c(N)n(/N=C/c2ccccn2)c2nc3ccccc3nc12`, the activation was inactive: 1.56%.
`Cc1nc(NCCc2ccccc2)c2oc3ccccc3c2n1` was tested, and the activation was active: 81.6%.
With `CC(C)(C)NC(=O)COC(=O)c1ccccc1OCC(=O)Nc1ccc(Br)cc1` the activation was inconclusive: 55.3%.
In the case of `CCCCNC(=O)c1cc2c(=O)n3cccc(C)c3nc2n1C`, the activation was inactive: 2.25%.
`Cc1cccc(/C=C/C(=O)c2ccc([N+](=O)[O-])o2)c1` was tested, and the activation was inconclusive: 43.5%.
In the case of `Cc1ccc(-c2n[nH]c(=S)c3ccccc23)cc1`, the activation was inactive: 1.32%.
For `Cc1ccccc1NC(NC(=O)c1cccs1)C(Cl)(Cl)Cl` (stereo unspecified), the activation was inconclusive: 32.4%.
In the case of `COc1ccc(CNC(=O)N2CCN(S(=O)(=O)c3ccccc3)CC2)cc1`, the activation was inconclusive: 44.7%.
In the case of `C/C(Cn1nnc([N+](=O)[O-])n1)=N\NC(=O)c1cccc(Cl)c1`, the activation was inconclusive: 30.9%.
`COc1cccc(N=c2oc3cc(O)ccc3cc2C(=O)NCC2CCCO2)c1` (stereo unspecified) was tested, and the activation was inconclusive: 37.2%.
With `O=C(NCCc1cccs1)C(c1ccccc1)c1ccccc1` the activation was inconclusive: 32.4%.
With `Clc1ccc(-c2cc(CN3CCOCC3)no2)cc1` the activation was inconclusive: 64.2%.
For `O=C(Cn1c(=O)oc2cc(S(=O)(=O)N3CCCCC3)ccc21)N1CCCCC1`, the activation was inactive: 2.15%.
In the case of `O=C(OC(C(=O)NC1CCCCC1)c1ccc(C(F)(F)F)cc1)c1ccco1` (stereo unspecified), the activation was inconclusive: 44.9%.
`O=C(NCCc1ccccc1)c1n[nH]c2ccccc12` was tested, and the activation was inconclusive: 66.9%.
`CC(OC(=O)Cc1ccccc1[N+](=O)[O-])C(=O)Nc1ccc(Cl)cn1` (stereo unspecified) was tested, and the activation was inconclusive: 53.7%.
With `COc1ccc(Nc2nnc(SC(C(=O)Nc3cc(C)ccc3C)c3ccccc3)s2)cc1` (stereo unspecified) the activation was inactive: -1.25%.
`Cc1ccc(Cn2c(C(=O)NCCCN3CCOCC3)cc3sccc32)cc1` was tested, and the activation was inconclusive: 36.7%.
In the case of `O=C(OCc1nc2ccccc2s1)c1ccc(Br)o1`, the activation was inconclusive: 31.9%.
`C=CCn1c(SCC(=O)/C(C#N)=C(\C)N)nc2sc(CC)cc2c1=O` was tested, and the activation was inconclusive: 43.8%.
`COC(=O)c1cc(CNC(=O)c2ccc(S(=O)(=O)N(C)c3ccccc3)cc2)ccc1OC` was tested, and the activation was inconclusive: 55.8%.
With `Cc1ccccc1Nc1nnc(SCC2CCCCO2)s1` (stereo unspecified) the activation was inconclusive: 35%.
With `CCOc1ccccc1N1CCN(C(=O)c2ccc3[nH]c4c(c3c2)CCCC4)CC1` the activation was inconclusive: 33%.
In the case of `CCN(CC(=O)Nc1c(F)cccc1F)C(=O)c1cc(C)nc2ccccc12`, the activation was inactive: -0.92%.
In the case of `CCOC(=O)c1c(CN(CC)CC)n(C)c2cc(Br)c(O)cc12`, the activation was inconclusive: 34.7%.
With `O=C(CSc1nnc(-c2ccccc2)c(-c2ccccc2)n1)NCc1ccco1` the activation was inactive: 5.11%.
In the case of `CSc1ccc(/C=C/C(=O)Nc2ccccc2)cc1`, the activation was active: 89.7%.
For `COc1ccc(NC(=O)c2ccc3c(c2)CCN3S(=O)(=O)c2ccccc2)cc1`, the activation was inconclusive: 49.8%.
With `COC(=O)c1ccc(NC(=S)NCCc2ccccc2C)cc1` the activation was inconclusive: 51.9%.
`O=C(Nc1ccc2snnc2c1)N1CCCCC1` was tested, and the activation was inconclusive: 61.1%.
In the case of `CCOc1ccc(/C=N/n2c(C3CCCCC3)n[nH]c2=S)cc1`, the activation was inactive: 0.277%.
For `CCCCCCSc1ccc(-c2nc3ccccn3c2NCCCC)cc1`, the activation was inconclusive: 58.1%.
For `Cc1ccc(-c2cc(C(F)F)nc(NCC3CCCO3)n2)cc1` (stereo unspecified), the activation was inconclusive: 62.9%.
`O=C(Nc1cccnc1)c1cn(-c2ccccc2)nc1-c1cccs1` was tested, and the activation was inconclusive: 33.9%.
`Cc1ccc(C)c(OCc2cc(C(=O)N(C)Cc3ccccn3)no2)c1` was tested, and the activation was inconclusive: 46.5%.
In the case of `Cc1cccc(NS(=O)(=O)c2cccc(C(=O)NCC(c3ccco3)N3CCCCC3)c2)c1` (stereo unspecified), the activation was inactive: 10.6%.
For `CCOC(=O)C1(Cc2ccccc2C)CCCN(C(=O)c2ccc(COC)o2)C1` (stereo unspecified), the activation was inconclusive: 46%.
`O=C(CC1SCCNC1=O)Nc1ccc(Cl)c(Cl)c1` (stereo unspecified) was tested, and the activation was inconclusive: 48.9%.
`Cc1ccc(NC(=O)N2CCC(C(=O)Nc3ccc(C)cc3C)CC2)cc1` was tested, and the activation was inconclusive: 38.5%.
With `CCC(=O)N(Cc1ccco1)c1nc(C(=O)Nc2ccc(Cl)cc2)c(C)s1` the activation was inconclusive: 39.6%.
`CCOc1ccc(NC(=O)c2cc(S(=O)(=O)N3CCOCC3)cs2)cc1` was tested, and the activation was inconclusive: 69.2%.
For `CC(C)C(=O)C1=Cc2cc([N+](=O)[O-])ccc2OC1N1CCOCC1` (stereo unspecified), the activation was inactive: 2.08%.
For `Cc1cccc(CNC(=O)c2ccccc2N)c1`, the activation was inactive: 25%.
With `CNC(=S)N(CCc1c(C)[nH]c2ccc(OC)cc12)Cc1ccco1` the activation was inactive: 3.76%.
In the case of `CC1CCN(c2ccc([N+](=O)[O-])cc2C(=O)NCC2CCCO2)CC1` (stereo unspecified), the activation was inconclusive: 52.7%.
For `CC(=O)c1cccc(NC(=O)c2ccc(OC3CSC3)cc2)c1`, the activation was active: 113%.
In the case of `CC(=O)C(Cc1ccccc1)NC(=O)CN(C)Cc1ccccc1Cl` (stereo unspecified), the activation was inconclusive: 31.3%.
In the case of `Cc1ccc2[nH]cc(CCNC(=O)Nc3ccccc3)c2c1`, the activation was inconclusive: 31.1%.
In the case of `CCCN1CCC(=O)N([C@H](CSc2ccc(Br)cc2)Cc2ccccc2)CC1`, the activation was inconclusive: 31.9%.
For `COCCNC(=O)CSc1nc(-c2ccccc2)c(-c2ccccc2)o1`, the activation was inconclusive: 37.8%.
For `O=C1N=C(N2CCCC2)S/C1=C\c1ccccc1`, the activation was inconclusive: 37.3%.
For `Cc1cccc(/C=C/c2onc(C)c2S(=O)(=O)N2CCC(C(=O)NC(C)C)CC2)c1`, the activation was inconclusive: 57.6%.
In the case of `O=C1N=C(N2CCOCC2)S/C1=C\c1ccc(OS(=O)(=O)c2ccccc2)cc1`, the activation was inconclusive: 68.6%.
With `CCN(CC)c1ccc(NC(=S)NC(=O)Cc2ccccc2)cc1` the activation was inconclusive: 43.5%.
With `CC(=O)c1cccc(OCCCOc2cccc3cccnc23)c1` the activation was inactive: 0.996%.
With `Cc1ccc(NCC(=O)c2ccc(C)cc2)cc1` the activation was inconclusive: 45.5%.
With `CC1CC(C)CN(S(=O)(=O)c2ccc3c(c2)oc(=O)n3CC(=O)NCc2cccnc2)C1` (stereo unspecified) the activation was inactive: 4.3%.
With `COc1ccc(N(C(=O)c2snc(C(N)=O)c2N)C(C(=O)NC2CCCC2)c2cccs2)c(OC)c1` (stereo unspecified) the activation was inconclusive: 54.1%.
In the case of `O=C(CN1CCSCC1)N1CCc2[nH]c3ccc(Br)cc3c2C1`, the activation was inconclusive: 33.3%.
In the case of `Cc1ccnc(NC(=O)c2ccc(OCc3c(C)noc3C)cc2)c1`, the activation was inconclusive: 37.5%.
With `Cc1ccc(NC(=O)c2ccc(Oc3ncccn3)cc2)cc1` the activation was inconclusive: 65.2%.
With `Cn1c(=O)c(/C=C/c2ccccc2)nc2ccccc21` the activation was inconclusive: 43%.
In the case of `CCCOc1ccc(-c2nnn(CC(=O)c3ccc4c(c3)OCCO4)n2)cc1`, the activation was inconclusive: 49%.
